From paper doi:10.1101/2022.09.11.507491
No constants are given. Whether binding was seen depends on the method and setting. In cells and extracts the contact can be indirect. A result given as binding can be weak or reduced; the word gives no strength.

Sequences of proteins named here, by UniProt entry; tags and fusion partners are left off. A change or cut given only in a name is not applied to a line headed by its entry.
UniProt P18089: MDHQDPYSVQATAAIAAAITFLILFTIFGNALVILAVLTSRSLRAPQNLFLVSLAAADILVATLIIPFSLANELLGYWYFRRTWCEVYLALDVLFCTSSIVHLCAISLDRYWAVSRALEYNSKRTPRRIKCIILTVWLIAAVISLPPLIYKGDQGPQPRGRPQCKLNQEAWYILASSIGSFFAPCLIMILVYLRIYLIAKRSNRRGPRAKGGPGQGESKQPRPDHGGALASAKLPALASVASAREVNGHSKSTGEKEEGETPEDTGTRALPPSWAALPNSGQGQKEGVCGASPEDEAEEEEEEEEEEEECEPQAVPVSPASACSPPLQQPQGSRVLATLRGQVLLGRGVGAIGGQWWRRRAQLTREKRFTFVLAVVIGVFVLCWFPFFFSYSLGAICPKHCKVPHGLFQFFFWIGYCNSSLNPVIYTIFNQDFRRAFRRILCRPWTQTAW
UniProt P08913: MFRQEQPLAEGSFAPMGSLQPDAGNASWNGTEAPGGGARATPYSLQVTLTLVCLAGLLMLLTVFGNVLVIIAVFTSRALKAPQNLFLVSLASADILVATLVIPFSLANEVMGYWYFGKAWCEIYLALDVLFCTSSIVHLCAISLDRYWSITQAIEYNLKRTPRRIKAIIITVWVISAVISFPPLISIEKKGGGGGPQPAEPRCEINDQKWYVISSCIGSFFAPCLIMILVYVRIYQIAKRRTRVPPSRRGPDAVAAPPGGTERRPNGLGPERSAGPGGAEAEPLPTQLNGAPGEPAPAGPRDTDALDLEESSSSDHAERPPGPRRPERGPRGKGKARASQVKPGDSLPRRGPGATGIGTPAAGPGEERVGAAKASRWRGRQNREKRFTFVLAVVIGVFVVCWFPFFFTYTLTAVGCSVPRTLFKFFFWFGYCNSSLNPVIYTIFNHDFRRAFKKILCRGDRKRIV
UniProt Q92633: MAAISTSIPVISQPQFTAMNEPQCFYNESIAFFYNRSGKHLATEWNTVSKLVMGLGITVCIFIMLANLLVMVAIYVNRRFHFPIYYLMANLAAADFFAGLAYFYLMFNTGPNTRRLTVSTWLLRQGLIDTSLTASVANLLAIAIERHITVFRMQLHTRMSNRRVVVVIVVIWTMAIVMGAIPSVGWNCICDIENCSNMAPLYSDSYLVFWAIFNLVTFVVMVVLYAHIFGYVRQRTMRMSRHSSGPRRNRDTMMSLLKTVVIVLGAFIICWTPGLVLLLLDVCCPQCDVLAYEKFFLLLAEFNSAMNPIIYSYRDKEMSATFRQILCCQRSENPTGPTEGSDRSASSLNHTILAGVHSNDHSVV
UniProt P08753: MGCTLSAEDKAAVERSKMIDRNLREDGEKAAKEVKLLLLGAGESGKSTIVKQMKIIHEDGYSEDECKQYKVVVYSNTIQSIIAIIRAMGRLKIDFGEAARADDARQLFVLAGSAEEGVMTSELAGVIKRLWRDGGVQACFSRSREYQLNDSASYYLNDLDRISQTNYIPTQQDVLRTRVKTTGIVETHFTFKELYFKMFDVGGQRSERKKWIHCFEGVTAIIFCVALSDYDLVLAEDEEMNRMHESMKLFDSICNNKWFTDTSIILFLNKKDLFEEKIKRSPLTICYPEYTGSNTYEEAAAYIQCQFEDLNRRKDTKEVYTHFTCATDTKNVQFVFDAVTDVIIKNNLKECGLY

Tests used:
Assay in all cases: pull-down
[1] = biological target: isolated third intercellular loop (icl3) of alpha 2B adrenergic receptor (UniProt P18089)
[2] = biological target: isolated third intercellular loop (icl3) of alpha 2A adrenergic receptor (UniProt P08913)
[3] = biological target: isolated third intercellular loop (icl3) of Lysophosphatidic Acid Receptor 1 (LPAR1) (UniProt Q92633)

Measured: binding

Gαi3-FLAG, non-phosphorylated (from UniProt P08753 1-354)
binds: all assays above

Gαi3-FLAG, phosphotyrosinated (induced by EGF) (from UniProt P08753 1-354)
binds: all assays above
